62 molecules from PubChem BioAssay AID2685 (National Center for Advancing Translational Sciences (NCATS), 2010) can be followed below.

A short description of this assay: qHTS Assay for Lipid Storage Modulators in Drosophila S3 Cells.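 For cell number change: cells counted by Cell Tracker Red CMTPX staining in the red channel.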 Particulars: BODIPY lipid droplet fluorescence, 18-24 h; for cell number change: measured here: cell count max response, cells fed with added oleic acid. Summed up: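 Drosophila S3 cells got compounds at several concentrations plus oleic acid (400 uM solution). Laser-scanning cytometry with 488 nm excitation read lipid droplets at 500-530 nm and cells at 575-640 nm. Percent activity was relative to 20 uM Triacsin C.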
For orientation: qHTS replaces the single test concentration by a dilution series.

[1] abbreviates: measured here: cell number channel AC50, cells fed with added oleic acid.
[2] abbreviates: measured here: lipid fluorescence (Fed channel) AC50, cells fed with added oleic acid.

SMILES strings stand for the structures. Some of the results follow. Further columns of the screen follow, without active or inactive calls. The list favours compounds with an active or inconclusive main result. Words in brackets tell the shape of the fitted curve; partial curves, single points and poor fits give uncertain potencies.

`O=c1[nH]c(CSc2ncccn2)nc2c1cnn2-c1ccccc1`: the cell number change is -44.8%. In addition, the AC50 under setting [1] was 29.1 µM [falling, single point]. For the same molecule, under setting [2], the concentration at half-maximal activity (AC50) was 0.82 µM [rising, full curve, poor fit]. `Cc1ccc(/C=C2\SC(=S)N(CCC(=O)NNC(=O)c3ccccc3O)C2=O)cc1`: the cell number change stood at 12.5%. Also, the half-maximal activity concentration (AC50) under setting [2] is 0.461 µM [rising, partial curve].

Take `CC(C)c1ccc(S(=O)(=O)N2CCN(C(C)C(=O)Nc3ccccc3-c3ccccc3)CC2)cc1` (stereo unspecified): the cell number change is 117%. For the same molecule, under setting [1], the AC50 is 20.6 µM [rising, single point]. Also, the AC50 under setting [2] was 23.1 µM [rising, single point]. For `Cc1ccc([N+](=O)[O-])cc1S(=O)(=O)Nc1ccc(-c2ccc(N3CCCC3)nn2)cc1`, the cell number change is 50.7%. The AC50 under setting [1] is 23.1 µM [rising, single point]. Consider `NC(=O)C1CCN(C(=O)CCNS(=O)(=O)c2cc(Br)cnc2N)CC1`, for which the cell number change was determined as 4.2%. With `CNC(=S)N/N=C/c1ccc(-c2cccc(C(=O)O)c2)o1`, the AC50 reads like this: under setting [1], 4.61 µM [rising, partial curve, poor fit]; under setting [2], 29.1 µM [rising, single point].

Consider `COC(=O)c1c(C)[nH]c(C(=O)CSc2nnnn2-c2ccccc2)c1C`, for which the cell number change is 39.7%. The AC50 under setting [1] is 1.3 µM [rising, full curve]. Under setting [2], the AC50 was 1.84 µM [rising, partial curve].

Regarding `O=C(c1ccco1)N1CCN(C(=O)C2CCN(S(=O)(=O)c3cnc[nH]3)CC2)CC1`, the cell number change is -8.11%. Also, the half-maximal activity concentration (AC50) under setting [2] is 25.9 µM [falling, partial curve]. With `COn1c(=O)c(-c2ccc(Cl)cc2)[n+]([O-])c2ccccc21`, the cell number change was -11.9%. Besides, the AC50 under setting [2] was 18.4 µM [falling, single point].

As to `O=Cc1cccc(Oc2ncccn2)c1`, the cell number change was -23.5%. In addition, under setting [2], the AC50 was 32.6 µM [falling, single point]. As to `COc1ccc(NC(=O)CCC(=O)c2cc(C)sc2C)cc1`, the cell number change is -0.294%. Under setting [2], the AC50 was 1.84 µM [falling, partial curve]. Turning to `COC(=O)c1cc(S(=O)(=O)n2nc(C)c(Br)c2C)c(Cl)cc1Cl`, the cell number change is -4.74%. For the same molecule, under setting [2], the AC50 is 29.1 µM [rising, single point].

For the molecule `COc1cccc(NC(=O)C23CCC(C)(C(=O)O2)C3(C)C)c1` (stereo unspecified), the AC50 reads like this: under setting [1], 4.61 µM [falling, single point]; under setting [2], 2.06 µM [falling, partial curve]. In the case of `O=C(N/N=C/c1ccc(O)cc1)c1nc(-c2ccccc2)n(-c2ccccc2)n1`, the cell number change is -22.5%. In addition, the AC50 under setting [1] is 0.731 µM [falling, full curve, poor fit]. Also, the AC50 under setting [2] is 0.82 µM [falling, full curve, poor fit]. `O=C(CNS(=O)(=O)c1cccc(Br)c1)NCC1CCCCC1`: the cell number change is -19.2%. Further, the AC50 under setting [2] was 5.17 µM [rising, single point]. For `CC1C(=O)N2CCCc3cc(NC(=O)COc4ccccc4)cc1c32` (stereo unspecified), the cell number change is -10.4%. The AC50 under setting [1] was 4.61 µM [rising, single point].

Take `COc1ccc(S(=O)(=O)N(CC(=O)NCc2ccccn2)Cc2ccccc2)cc1`: the cell number change is -1.68%. Also, the AC50 under setting [2] was 2.91 µM [rising, single point].

Consider `Cc1ccc(C)c(N(CC(=O)NCCC2=CCCCC2)S(C)(=O)=O)c1`, for which the cell number change was 12.1%. Also, the AC50 under setting [2] was 0.651 µM [falling, single point]. `CCOC(=O)C1(CCOc2ccccc2)CCN(Cc2cc(OC)cc(OC)c2)CC1`: the cell number change was -13.2%. In addition, under setting [2], the AC50 is 0.58 µM [falling, single point]. With `Brc1ccc(-c2cnnc(N3CCCC3)n2)cc1`, the cell number change is 3.94%. Moreover, the AC50 under setting [2] was 13 µM [rising, single point]. As to `COc1ccc(CCN(C)C(=O)Cc2ccc(-c3ccccc3)cc2)cc1OC`, the cell number change stood at 11.3%. For `Cc1cc(C)c(C(=O)N2CCCC(CNS(=O)(=O)c3cccs3)C2)o1` (stereo unspecified), the cell number change was -3.47%. The half-maximal activity concentration (AC50) under setting [2] is 29.1 µM [rising, single point]. Consider `COc1cccc(CNC(=O)Cn2nc(-c3ccc(Cl)cc3)ccc2=O)c1`, for which the cell number change is -0.938%. Besides, under setting [1], the AC50 is 0.146 µM [falling, full curve, poor fit]. Also, the AC50 under setting [2] is 0.146 µM [falling, full curve].

`CCc1ccccc1NCc1cc(=O)oc2cc(C)ccc12`: the cell number change was found to be 30.4%.

On to `Cc1ccc(NC(=O)[C@H](Cc2ccccc2)NC(=O)[C@@H]2Cc3ccccc3CN2)c(C)c1`, for which the cell number change is 18%. Further, under setting [2], the AC50 was 6.51 µM [falling, single point]. `O=C(Nc1cccc2nsnc12)c1ccc(F)cc1`: the cell number change was found to be 6.21%. Under setting [1], the AC50 was 6.51 µM [rising, single point]. Take `COc1cccc(-n2c(SCC(N)=O)nc3c([nH]c4ccccc43)c2=O)c1`: the cell number change was 10.7%. In addition, the AC50 under setting [2] was 2.91 µM [rising, full curve]. Regarding `CCOCc1cc(CN2CCC(CCC(=O)NC3CC3)CC2)ccc1OC`, the cell number change came out at 14.8%. Moreover, the AC50 under setting [2] is 29.1 µM [rising, single point]. `COc1ccc(NC(=O)CN(C)C(=O)c2cccc(NS(=O)(=O)c3ccc(Br)cc3)c2)cc1`: under setting [1], the AC50 was 0.13 µM [falling, full curve, poor fit]. `CCCCOC(=O)Nc1ccc(C(N)=O)cc1`: the cell number change worked out at 46.5%. Moreover, the AC50 under setting [1] was 20.6 µM [rising, single point]. With `COc1ccc(-c2nnn(CC(=O)N(CCCN3CCOCC3)C(C(=O)NC3CCCC3)c3ccco3)n2)cc1` (stereo unspecified), the cell number change turned out to be 11.1%. As to `COc1ccc2[nH]c3c(=O)n(CCCN4CCOCC4)cnc3c2c1`, the cell number change came to 7.84%.

Regarding `CCCc1cc(=O)oc2cc(OCC(=O)NC(Cc3c[nH]c4ccc(O)cc34)C(=O)O)c(Cl)cc12` (stereo unspecified), the cell number change is 8.72%. In the case of `Cc1ccc(-c2ccc(=O)n(Cc3c(F)cccc3Cl)n2)cc1`, under setting [1], the AC50 was 0.092 µM [rising, full curve, poor fit]. Turning to `O=C(COc1ccccc1F)NNC(=O)Cc1ccc(S(=O)(=O)N2CCOCC2)s1`, the cell number change was 3.23%. Further, under setting [2], the AC50 is 0.58 µM [rising, single point]. As for `Cc1ccc(C2C(C#N)=C(N)Oc3n[nH]c(C)c32)cc1` (stereo unspecified), the cell number change was -6.34%. Same read-out and setting: under `CCS(=O)(=O)CCSc1nc(C)cc(C)n1` stands 1.87%.

Consider `COc1cccc(NC2=NCCCCC2)c1`, for which the cell number change came out at 8.33%. Take `CCOc1ccc(/C=C(\C#N)C(=O)NCC2CCCO2)cc1OCC` (stereo unspecified): the cell number change was 1.5%. Besides, under setting [2], the AC50 was 6.51 µM [rising, single point]. On to `CC1=C(C#N)CCC(=O)N1Cc1c(C)cc(C)cc1C`, for which the cell number change came out at 11.2%. As for `CCC(C)NC(=O)/C=C/c1cccs1` (stereo unspecified), the cell number change is -23.7%. Besides, the concentration at half-maximal activity (AC50) under setting [1] is 2.31 µM [falling, full curve, poor fit]. For `Cn1c(=O)c2[nH]c(SCC(=O)c3ccc(F)cc3)nc2n(C)c1=O`, the cell number change was -28.5%. For the molecule `COc1ccc2[nH]c(=O)c(CN(Cc3cccs3)C(=S)NCC3CCCO3)cc2c1` (stereo unspecified), the cell number change was found to be 6%. The AC50 under setting [2] is 0.291 µM [rising, full curve, poor fit].

With `Cc1cc(N2CCCc3ccccc32)n2ncnc2n1`, the cell number change came out at 21.5%. In the case of `O=C(Cn1nc(C(=O)O)c2ccccc2c1=O)Nc1cc(Cl)cc(Cl)c1`, the cell number change was -6.85%. In addition, the AC50 under setting [2] is 20.6 µM [falling, single point]. `Cc1ccc(C(=O)N2CCN(c3ccccn3)CC2)cc1`: the AC50 is, setting by setting: under setting [1], 0.092 µM [rising, partial curve, poor fit]; under setting [2], 2.31 µM [rising, partial curve]. For `Cc1ccc(NC(=O)c2ccc(C)c(S(=O)(=O)N3CCOCC3)c2)nc1`, the cell number change is -11.5%. The AC50 under setting [2] was 1.03 µM [falling, partial curve].

Turning to `O=C(CCNS(=O)(=O)c1ccccc1)OCC(=O)c1ccc(Br)cc1`, the cell number change is -18.5%. On to `O=C(O)CCC(=O)Nc1ccccc1C(=O)NCc1ccccc1`, for which the cell number change is -50%. In addition, under setting [1], the AC50 is 29.1 µM [falling, single point]. In the case of `CN(C)c1ccc(/C=C/C(=O)c2c(O)c3ccccc3oc2=O)cc1`, the cell number change is -1.28%. On to `CC(=O)c1c(C)nc2ccc(C)cc2c1-c1ccccc1`, for which the cell number change was -3.7%. Further, under setting [2], the AC50 is 6.51 µM [falling, single point]. As for `O=C(N/C(=C\c1ccc2c(c1)OCO2)C(=O)N1CCOCC1)c1ccccc1Br`, the cell number change is 14.1%. For the same molecule, the AC50 under setting [2] is 0.651 µM [rising, single point].

On to `CCOc1ccc(S(=O)(=O)N2c3ccccc3CC2C)cc1` (stereo unspecified), for which the cell number change is -11%. On to `COc1ccc(C(CC(=O)NCc2ccccc2)Sc2n[nH]c(-c3ccc(Cl)cc3)n2)cc1` (stereo unspecified), for which the cell number change is -36.4%. Besides, the AC50 under setting [1] was 1.3 µM [falling, full curve]. Also, under setting [2], the AC50 is 29.1 µM [falling, single point]. With `CCOc1ccc(C(=O)Nc2ccc(-c3cc4ccccc4oc3=O)c(C)c2)cc1[N+](=O)[O-]`, the cell number change came to 11.1%. Moreover, the AC50 under setting [2] was 10.3 µM [rising, partial curve, poor fit]. In the case of `CCN(CC)c1ccc(C(=O)NC(=S)N2CCN(Cc3ccc4c(c3)OCO4)CC2)cc1`, the cell number change worked out at 12.5%. The half-maximal activity concentration (AC50) under setting [2] was 23.1 µM [rising, partial curve, poor fit]. For `CCOC(=O)c1nn(-c2ccc(Cl)cc2)c(=O)c(C#N)c1C`, the cell number change was found to be 9.38%. Further, the AC50 under setting [2] is 2.06 µM [rising, partial curve]. Turning to `O=C(Cc1ccc(Cl)cc1)N1CCOCC1`, the cell number change was determined as 18.9%. In addition, the AC50 under setting [2] is 6.51 µM [falling, partial curve, poor fit]. Consider `CCOC(=O)Cc1csc(NC(=S)NC(=O)CC(C)C)n1`, for which the cell number change was -0.334%. Besides, the AC50 under setting [1] is 1.03 µM [falling, partial curve]. The AC50 under setting [2] was 3.26 µM [falling, partial curve].

Regarding `Cn1nnnc1Sc1ncnc2scc(-c3ccc(C(F)(F)F)cc3)c12`, the cell number change was -11.1%. Besides, the AC50 under setting [2] was 0.146 µM [falling, single point]. In the case of `COC(=O)c1cn(C)c2ccc(S(=O)(=O)N3CCCCC3)cc2c1=O`, the cell number change worked out at 151%. Moreover, the AC50 under setting [1] is 29.1 µM [rising, single point]. Besides, under setting [2], the AC50 is 29.1 µM [rising, single point].

Take `CCCCCCC1CCC(c2nc(-c3ccncc3)no2)CC1` (stereo unspecified): the cell number change is -11.7%. Further, the AC50 under setting [1] is 6.51 µM [falling, single point]. The AC50 under setting [2] was 6.51 µM [falling, single point].

What is called AC50 is the midpoint of the concentration-response curve, whichever way the signal moves. A lower AC50 goes with greater potency.
